This is an account of results in patent EP2177533A1 (TU München, priority 2008, dated 2010).

The nature of this data set: general procedure: Fmoc solid-phase peptide synthesis; Tritylchloride polystyrene TCP-resin (0.94 mmol/g); TBTU/HOBt/DIEA. The following applies: cyclisation step.

HELM strings list residues between dots; [ac] is acetyl, [am] amide, other brackets name non-standard units.

Consider “PEPTIDE1{[MeAla].Y.[dW].K.V.F}$PEPTIDE1,PEPTIDE1,1:R1-6:R2$$$V2.0”, for which the cyclisation yield is recorded as 83%.

For “PEPTIDE1{[meA].Y.[dW].[meK].V.F}$PEPTIDE1,PEPTIDE1,6:R2-1:R1$$$V2.0”, the cyclisation yield came out at 71%.

In turn, “PEPTIDE1{[meA].Y.[medW].[meK].V.F}$PEPTIDE1,PEPTIDE1,6:R2-1:R1$$$V2.0” showed a cyclisation yield of 68%.

As to “PEPTIDE1{[meA].Y.[medW].[meK].V.[meF]}$PEPTIDE1,PEPTIDE1,6:R2-1:R1$$$V2.0”, the cyclisation yield came out at 72%.
